The values below come from paper doi:10.1101/2024.10.15.618347.

The exact form of at least one protein or probe is not confirmed. Weaker means in comparison with the reference protein, sequence or condition of that experiment. At least one verdict was read from the data and is not stated in words by the source.

The target of this series is YTHDC1 YTH domain (UniProt Q96MU7). The experiment in a line: EMSA. As to conditions: 0.13-2 uM protein, 2 nM RNA, residues 345-509. For orientation: In EMSA bound probe runs differently from free probe, usually more slowly.

As to “AACUUAAUGUUUUUGCAUUGGACUUUGAGUU [MALAT1 oligo, unmodified]”, the binding result is “binds more weakly”.
